Measured data: PubChem BioAssay AID1259254 (NCATS, 2017)
This is a random part of about 59,000 deposited reagents. About 1,550 of all reagents (2.6%) were called active. 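G2 share is only a proxy for re-replication; each gene was hit by three separate siRNAs, and active genes were retested.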 A number with no mark means an inactive call. Reagents against one gene are numbered here. Further read-outs or replicates are left out here. Not given: the amount of reagent.

- Screen: 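Finding genes that stop cells copying their DNA twice in one cycle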 (primary screen)
- System: human HCT116 colorectal cancer cells
- Knock-down reagent: single siRNA against human genes
- Time to read-out: 3 days
- Detection: 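Imaged Hoechst DNA stain sorts each cell into a cycle phase by DNA amount; per plate, G2 fraction set to 0% for non-targeting and 100% for GMNN siRNA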
- Scale: G2 robust z-score: higher = more G2 cells, more excess DNA replication
- Active means: 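An siRNA counts as active if its G2 robust z-score lies at least 5 MADs above the screen median; here such calls match roughly 38% of GMNN control or more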

G2 robust z-score, by gene symbol and reagent
LCE1B: #1 -0.105; #2 1.01; #3 0.468
ATE1: #1 -0.316; #2 0.441; #3 0.0494
NRG1: #1 -0.613; #2 0.877; #3 -0.568
RPS6KA3: #1 0.181; #2 -0.923; #3 -1.02
MECOM: #1 -0.327; #2 -0.0248; #3 -0.387; #4 0.0172; #5 -0.898; #6 -0.51
RITA1: #1 -1.11; #2 4.26; #3 0.309
LINC03086: #1 -0.115; #2 0.561; #3 0.35
SCAF1: #1 -0.498; #2 3.49; #3 0.866
IDNK: #1 -0.758; #2 -0.278; #3 -0.728
WDR31: #1 1.53; #2 2.49; #3 -1.16
EPHX1: #1 2.12; #2 5.42 (active); #3 0.159
UBE2J2: #1 -0.536; #2 -0.195; #3 0.409
ZBTB7C: #1 2.99; #2 -0.785; #3 0.648
FOXN3: #1 -0.725; #2 0.113; #3 0.193
PVR: #1 0.64; #2 0.0298; #3 -0.19
HSPA14: #1 -0.687; #2 1.15; #3 -0.913
CFAP144: #1 7.27 (active); #2 -1.08; #3 -0.865
NDUFS4: #1 0.0449; #2 1.79; #3 0.702
CCAR1: #1 -0.00182; #2 -1.13; #3 0.151
YTHDF3: #1 -0.0634; #2 -0.141; #3 -0.414
MRPS9: #1 0.257; #2 0.678; #3 0.69
RXRA: #1 3.93; #2 -0.509; #3 -0.219
